PubChem BioAssay AID1224831 | NIAID | 2016
The whole screen tested about 3,500 reagents; below is a part drawn at random. 731 of them (21%) count as active. 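Active means either lowered or raised reporter signal; the gene-median score did not drive the per-siRNA calls.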 Entries without a mark were called inactive. The numbers tell different reagents against one gene apart. Reagent sequences are not shown.

Screen: 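Confirming genome-wide hits on LPS-triggered TNF-alpha induction with independent siRNA sequences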 (follow-up of hits)
Cells: human THP-1 B5 monocytic leukaemia cells carrying a TNF promoter luciferase reporter, made macrophage-like with PMA
Reagent: single siRNA against human genes, 50 nM
Time to read-out: about 68 h of knock-down, then 4 h LPS
Conditions: LPS (Salmonella minnesota, TLR-grade) at 10 ng/ml for 4 h; PMA 5 ng/ml present during knock-down
Detection: 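Firefly to renilla luciferase ratio of a TNF promoter reporter after 4 h LPS, scaled to plate median, turned into robust z-score, averaged over replicates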
Reading the numbers: TNF reporter z-score: higher = stronger LPS-induced TNF reporter signal; z-score, median over gene's siRNAs: higher = stronger TNF reporter signal across the gene's siRNAs
Call rule: 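Two-sided call: reduced or raised TNF reporter signal counts as active once mean z reaches about -1 or below, or about 1.5 or above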
Meaning of the calls: active = changed TNF reporter (either direction); inactive = little change

CLEC12B (C-type lectin domain family 12 member B) #1
- TNF reporter z-score, replicate mean: 0.57
- z-score, median over gene's siRNAs: -0.045

CLEC12B (C-type lectin domain family 12 member B) #2
- TNF reporter z-score, replicate mean: -1.4 (active)
- z-score, median over gene's siRNAs: -0.045

CLEC12B (C-type lectin domain family 12 member B) #3
- TNF reporter z-score, replicate mean: 0.99
- z-score, median over gene's siRNAs: -0.045

CLEC12B (C-type lectin domain family 12 member B) #4
- TNF reporter z-score, replicate mean: -0.3
- z-score, median over gene's siRNAs: -0.045

CLEC12B (C-type lectin domain family 12 member B) #5
- TNF reporter z-score, replicate mean: -0.62
- z-score, median over gene's siRNAs: -0.045

CLEC12B (C-type lectin domain family 12 member B) #6
- TNF reporter z-score, replicate mean: 0.21
- z-score, median over gene's siRNAs: -0.045

SOBP (sine oculis binding protein homolog) #1
- TNF reporter z-score, replicate mean: 1.01
- z-score, median over gene's siRNAs: 0.22

SOBP (sine oculis binding protein homolog) #2
- TNF reporter z-score, replicate mean: -1.47 (active)
- z-score, median over gene's siRNAs: 0.22

SOBP (sine oculis binding protein homolog) #3
- TNF reporter z-score, replicate mean: 0.25
- z-score, median over gene's siRNAs: 0.22

SOBP (sine oculis binding protein homolog) #4
- TNF reporter z-score, replicate mean: 0.12
- z-score, median over gene's siRNAs: 0.22

SOBP (sine oculis binding protein homolog) #5
- TNF reporter z-score, replicate mean: 0.9
- z-score, median over gene's siRNAs: 0.22

SOBP (sine oculis binding protein homolog) #6
- TNF reporter z-score, replicate mean: 0.19
- z-score, median over gene's siRNAs: 0.22

CFAP161 (cilia and flagella associated protein 161) #1
- TNF reporter z-score, replicate mean: 0.56
- z-score, median over gene's siRNAs: -0.08

CFAP161 (cilia and flagella associated protein 161) #2
- TNF reporter z-score, replicate mean: -0.17
- z-score, median over gene's siRNAs: -0.08

CFAP161 (cilia and flagella associated protein 161) #3
- TNF reporter z-score, replicate mean: 0.01
- z-score, median over gene's siRNAs: -0.08

CFAP161 (cilia and flagella associated protein 161) #4
- TNF reporter z-score, replicate mean: 0
- z-score, median over gene's siRNAs: -0.08

CFAP161 (cilia and flagella associated protein 161) #5
- TNF reporter z-score, replicate mean: -0.3
- z-score, median over gene's siRNAs: -0.08

CFAP161 (cilia and flagella associated protein 161) #6
- TNF reporter z-score, replicate mean: -0.16
- z-score, median over gene's siRNAs: -0.08

CASKIN1 (CASK interacting protein 1) #1
- TNF reporter z-score, replicate mean: 0.98
- z-score, median over gene's siRNAs: 0.87

CASKIN1 (CASK interacting protein 1) #2
- TNF reporter z-score, replicate mean: 0.76
- z-score, median over gene's siRNAs: 0.87

CASKIN1 (CASK interacting protein 1) #3
- TNF reporter z-score, replicate mean: 1.54 (active)
- z-score, median over gene's siRNAs: 0.87

CASKIN1 (CASK interacting protein 1) #4
- TNF reporter z-score, replicate mean: -0.27
- z-score, median over gene's siRNAs: 0.87

CASKIN1 (CASK interacting protein 1) #5
- TNF reporter z-score, replicate mean: 3.02 (active)
- z-score, median over gene's siRNAs: 0.87

CASKIN1 (CASK interacting protein 1) #6
- TNF reporter z-score, replicate mean: 0.67
- z-score, median over gene's siRNAs: 0.87

TWF2 (twinfilin actin binding protein 2) #1
- TNF reporter z-score, replicate mean: 0.8
- z-score, median over gene's siRNAs: -0.005

TWF2 (twinfilin actin binding protein 2) #2
- TNF reporter z-score, replicate mean: -0.24
- z-score, median over gene's siRNAs: -0.005

TWF2 (twinfilin actin binding protein 2) #3
- TNF reporter z-score, replicate mean: 0.23
- z-score, median over gene's siRNAs: -0.005

TWF2 (twinfilin actin binding protein 2) #4
- TNF reporter z-score, replicate mean: -0.57
- z-score, median over gene's siRNAs: -0.005

TWF2 (twinfilin actin binding protein 2) #5
- TNF reporter z-score, replicate mean: -0.63
- z-score, median over gene's siRNAs: -0.005

TWF2 (twinfilin actin binding protein 2) #6
- TNF reporter z-score, replicate mean: 0.97
- z-score, median over gene's siRNAs: -0.005

2 entries from above, reformatted:
{"gene knocked down":"SOBP (sine oculis binding protein homolog)","reagent":3,"TNF reporter z-score, replicate mean":0.25,"z-score, median over gene's siRNAs":0.22}
{"gene knocked down":"SOBP (sine oculis binding protein homolog)","reagent":4,"TNF reporter z-score, replicate mean":0.12,"z-score, median over gene's siRNAs":0.22}
